Results are given in words; binding and its absence hold for the method and conditions named. Binding seen in cells or lysates may run through a third protein. Some results given as binding are weak or reduced against the parent protein; the word gives no strength. For part of these data: Tags and fused reporters may be left off the sequences shown. Blank lines part the entries; values can stand above or below the substance they belong to.
Key:
Flag‐tagged RORB = target: T1, Flag‐tagged RORB (UniProt Q92753); assay: co-IP; SK-N-BE(2) cells expressing Flag-tagged RORB and Myc-tagged RBM10
T1 sequence: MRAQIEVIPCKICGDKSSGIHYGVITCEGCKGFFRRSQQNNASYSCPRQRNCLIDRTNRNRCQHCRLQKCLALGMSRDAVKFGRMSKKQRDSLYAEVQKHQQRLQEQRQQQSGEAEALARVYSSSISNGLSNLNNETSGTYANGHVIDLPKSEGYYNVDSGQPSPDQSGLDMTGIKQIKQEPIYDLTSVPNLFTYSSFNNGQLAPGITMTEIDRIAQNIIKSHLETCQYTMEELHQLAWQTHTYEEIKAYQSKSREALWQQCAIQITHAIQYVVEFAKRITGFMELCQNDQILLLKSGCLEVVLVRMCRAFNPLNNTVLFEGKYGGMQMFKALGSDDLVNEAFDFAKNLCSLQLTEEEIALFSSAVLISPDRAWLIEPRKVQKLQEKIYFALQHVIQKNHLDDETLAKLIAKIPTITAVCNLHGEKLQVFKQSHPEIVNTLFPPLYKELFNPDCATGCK

By UniProt entry, the sequences of proteins in these tests, tags left out.
UniProt P98175: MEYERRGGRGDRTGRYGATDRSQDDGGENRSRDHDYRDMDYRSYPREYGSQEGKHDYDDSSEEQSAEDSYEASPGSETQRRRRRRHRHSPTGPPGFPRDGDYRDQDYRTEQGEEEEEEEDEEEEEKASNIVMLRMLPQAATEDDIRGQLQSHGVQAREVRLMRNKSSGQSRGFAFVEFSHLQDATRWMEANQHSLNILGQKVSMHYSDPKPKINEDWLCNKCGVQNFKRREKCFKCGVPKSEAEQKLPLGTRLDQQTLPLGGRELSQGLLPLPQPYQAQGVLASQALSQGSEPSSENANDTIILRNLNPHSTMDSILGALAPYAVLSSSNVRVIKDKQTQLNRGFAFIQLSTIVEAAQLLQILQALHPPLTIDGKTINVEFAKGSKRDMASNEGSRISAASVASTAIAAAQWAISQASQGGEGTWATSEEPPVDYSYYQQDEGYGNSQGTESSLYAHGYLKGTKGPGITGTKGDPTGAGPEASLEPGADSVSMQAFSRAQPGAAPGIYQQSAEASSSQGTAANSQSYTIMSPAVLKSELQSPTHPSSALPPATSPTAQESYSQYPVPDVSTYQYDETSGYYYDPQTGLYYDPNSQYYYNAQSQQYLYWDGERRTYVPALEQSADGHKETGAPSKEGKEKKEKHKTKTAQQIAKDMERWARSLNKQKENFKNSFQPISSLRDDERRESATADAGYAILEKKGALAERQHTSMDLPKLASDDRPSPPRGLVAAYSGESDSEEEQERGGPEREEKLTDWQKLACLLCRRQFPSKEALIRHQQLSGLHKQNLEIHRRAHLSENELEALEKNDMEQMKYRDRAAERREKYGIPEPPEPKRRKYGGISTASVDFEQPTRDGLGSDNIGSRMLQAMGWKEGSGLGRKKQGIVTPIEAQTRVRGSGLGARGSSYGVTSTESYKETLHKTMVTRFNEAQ

RORB, BiFC construct = target: T2, RORB, BiFC construct (UniProt Q92753); assay: split reporter; BiFC in SK-N-BE(2) cells; fluorescence within the nucleus
T2 sequence: T1 sequence

[1] = target: T3, RAR‐related orphan receptor B (RORB), endogenous (human (endogenous in SH-SY5Y, SK-N-AS, SK-N-BE(2), IMR-32)) (UniProt Q92753); assay: co-IP; endogenous proteins in SH-SY5Y and SK-N-AS cells; western blot; IgG as negative control
T3 sequence: T1 sequence

binding (Flag‐tagged RORB): binds
Substance: Myc‐tagged RBM10 (from UniProt P98175 1-930)

binding (RORB, BiFC construct): binds
Substance: RBM10, BiFC construct (from UniProt P98175 1-930)

binding [1]: binds
Substance: RNA binding motif protein 10 (RBM10), endogenous (from UniProt P98175 1-930)

From article PMC12667445, “Targeting RBM10‐Repressed RORB Activity in Liquid Condensates Inhibits Lysosomal Biogenesis and Neuroblastoma Progression via Affecting NF‐κB Signaling” (Advanced Science, 2025)
